Results published in ChEMBL document CHEMBL3044875, “Synthesis and antimicrobial activity of some bisoctahydroxanthene-1,8-dione derivatives” (2011).

Assays:
[1] = test system: Candida albicans; experiment: Antifungal activity against Candida albicans ATCC 10231 at 100 U/disk after 48 hr by disk-diffusion method; type: functional, organism-based
[2] = test system: Aspergillus niger; experiment: Antifungal activity against Aspergillus niger ATCC 10949 at 100 U/disk after 72 hr by disk diffusion method; type: functional, organism-based

With NYSTATIN the inhibition zone (IZ) [1] was 20 mm and the inhibition zone (IZ) [2] was 22 mm.
